Among the data in PMC10613711 are binding values, retold here.

Chains of the proteins cited; added tags and fusions are not shown. Lines headed by an entry give the natural chain unless they say otherwise; changes in a name come on top. Residues count along the entry.
UniProt P20823, residues 83-631: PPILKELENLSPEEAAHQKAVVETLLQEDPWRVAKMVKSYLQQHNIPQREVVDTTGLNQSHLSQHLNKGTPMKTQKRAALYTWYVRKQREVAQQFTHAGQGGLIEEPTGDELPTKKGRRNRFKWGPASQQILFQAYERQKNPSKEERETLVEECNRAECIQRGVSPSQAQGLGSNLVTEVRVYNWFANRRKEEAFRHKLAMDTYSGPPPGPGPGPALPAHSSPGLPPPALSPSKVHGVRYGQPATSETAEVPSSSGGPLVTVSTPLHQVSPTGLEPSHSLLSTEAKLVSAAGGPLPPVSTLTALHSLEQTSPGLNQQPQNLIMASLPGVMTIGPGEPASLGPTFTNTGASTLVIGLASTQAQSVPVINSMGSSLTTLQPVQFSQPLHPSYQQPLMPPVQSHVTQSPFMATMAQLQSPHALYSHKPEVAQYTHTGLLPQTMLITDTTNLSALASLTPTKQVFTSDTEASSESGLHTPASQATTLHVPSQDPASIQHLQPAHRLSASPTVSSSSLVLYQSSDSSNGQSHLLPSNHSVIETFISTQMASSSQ

This assay addresses HNF-1A DBD-TAD (His6-TEV-DBD-TAD construct, residues 83-631 of human hepatocyte nuclear factor 1α) (human) (UniProt P20823). Briefly: SAXS; batch mode, DBD-TAD at ~2.5 mg/mL, 4 mM Tris pH 8.5, 100 mM NaCl, 1 mM TCEP, 10°C; molecular weight estimates by the Vc and SAXSMoW methods; both purified.

Results are given in words; binding and its absence hold for the method and conditions named.

As for “HNF-1A DBD-TAD (His6-TEV-DBD-TAD construct, residues 83-631 of human hepatocyte nuclear factor 1α) (from UniProt P20823-1 83-631) (domain or fragment)”, the binding result was “no binding (tested: ~2.5 mg/mL)”.
